No constants are given. Whether binding was seen depends on the method and setting. Binding seen in cells or lysates may run through a third protein. Some results given as binding are weak or reduced against the parent protein; the word gives no strength. Sequences can lack the tags named with a protein. One block for each molecule: values may come before it.
Tests used:
[1] = target: T1, GST-fused GTSF1L N-terminal region (ZnF) (mouse) (UniProt Q9CWD0); experiment: pull-down; GST-fusion protein on Glutathione Sepharose 4B beads; mouse testis lysate, untreated, 2 h at 4°C; binding buffer 20 mM Tris-HCl pH 7.5, 150 mM NaCl, 0.1% NP40; western blotting of the bound fraction; only the target purified
T1 sequence: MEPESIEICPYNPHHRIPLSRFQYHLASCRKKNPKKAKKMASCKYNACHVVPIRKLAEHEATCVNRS

By UniProt entry, the sequences of proteins in these tests, tags left out.
UniProt Q9JMB7: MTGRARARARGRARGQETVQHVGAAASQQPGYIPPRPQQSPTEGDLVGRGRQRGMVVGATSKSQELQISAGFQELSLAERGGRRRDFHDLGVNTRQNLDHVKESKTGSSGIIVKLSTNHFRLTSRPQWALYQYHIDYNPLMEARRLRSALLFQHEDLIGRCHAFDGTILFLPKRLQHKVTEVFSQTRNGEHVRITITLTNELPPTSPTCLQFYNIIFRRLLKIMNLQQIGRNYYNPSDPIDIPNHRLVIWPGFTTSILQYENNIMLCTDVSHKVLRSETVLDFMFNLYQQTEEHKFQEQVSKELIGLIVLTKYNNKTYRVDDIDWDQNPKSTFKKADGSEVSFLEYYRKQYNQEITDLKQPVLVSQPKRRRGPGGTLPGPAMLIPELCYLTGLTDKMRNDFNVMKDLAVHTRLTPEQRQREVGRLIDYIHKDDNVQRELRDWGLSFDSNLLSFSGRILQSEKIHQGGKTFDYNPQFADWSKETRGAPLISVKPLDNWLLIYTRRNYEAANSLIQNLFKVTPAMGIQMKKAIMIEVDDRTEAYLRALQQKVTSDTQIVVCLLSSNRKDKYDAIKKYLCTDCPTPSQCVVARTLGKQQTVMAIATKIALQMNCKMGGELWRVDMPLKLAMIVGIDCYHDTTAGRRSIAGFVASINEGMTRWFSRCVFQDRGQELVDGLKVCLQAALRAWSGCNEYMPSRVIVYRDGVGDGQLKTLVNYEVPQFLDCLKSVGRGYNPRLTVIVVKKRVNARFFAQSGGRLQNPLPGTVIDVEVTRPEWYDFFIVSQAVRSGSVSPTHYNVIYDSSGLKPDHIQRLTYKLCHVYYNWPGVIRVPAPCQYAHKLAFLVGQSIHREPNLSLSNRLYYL
UniProt P61407: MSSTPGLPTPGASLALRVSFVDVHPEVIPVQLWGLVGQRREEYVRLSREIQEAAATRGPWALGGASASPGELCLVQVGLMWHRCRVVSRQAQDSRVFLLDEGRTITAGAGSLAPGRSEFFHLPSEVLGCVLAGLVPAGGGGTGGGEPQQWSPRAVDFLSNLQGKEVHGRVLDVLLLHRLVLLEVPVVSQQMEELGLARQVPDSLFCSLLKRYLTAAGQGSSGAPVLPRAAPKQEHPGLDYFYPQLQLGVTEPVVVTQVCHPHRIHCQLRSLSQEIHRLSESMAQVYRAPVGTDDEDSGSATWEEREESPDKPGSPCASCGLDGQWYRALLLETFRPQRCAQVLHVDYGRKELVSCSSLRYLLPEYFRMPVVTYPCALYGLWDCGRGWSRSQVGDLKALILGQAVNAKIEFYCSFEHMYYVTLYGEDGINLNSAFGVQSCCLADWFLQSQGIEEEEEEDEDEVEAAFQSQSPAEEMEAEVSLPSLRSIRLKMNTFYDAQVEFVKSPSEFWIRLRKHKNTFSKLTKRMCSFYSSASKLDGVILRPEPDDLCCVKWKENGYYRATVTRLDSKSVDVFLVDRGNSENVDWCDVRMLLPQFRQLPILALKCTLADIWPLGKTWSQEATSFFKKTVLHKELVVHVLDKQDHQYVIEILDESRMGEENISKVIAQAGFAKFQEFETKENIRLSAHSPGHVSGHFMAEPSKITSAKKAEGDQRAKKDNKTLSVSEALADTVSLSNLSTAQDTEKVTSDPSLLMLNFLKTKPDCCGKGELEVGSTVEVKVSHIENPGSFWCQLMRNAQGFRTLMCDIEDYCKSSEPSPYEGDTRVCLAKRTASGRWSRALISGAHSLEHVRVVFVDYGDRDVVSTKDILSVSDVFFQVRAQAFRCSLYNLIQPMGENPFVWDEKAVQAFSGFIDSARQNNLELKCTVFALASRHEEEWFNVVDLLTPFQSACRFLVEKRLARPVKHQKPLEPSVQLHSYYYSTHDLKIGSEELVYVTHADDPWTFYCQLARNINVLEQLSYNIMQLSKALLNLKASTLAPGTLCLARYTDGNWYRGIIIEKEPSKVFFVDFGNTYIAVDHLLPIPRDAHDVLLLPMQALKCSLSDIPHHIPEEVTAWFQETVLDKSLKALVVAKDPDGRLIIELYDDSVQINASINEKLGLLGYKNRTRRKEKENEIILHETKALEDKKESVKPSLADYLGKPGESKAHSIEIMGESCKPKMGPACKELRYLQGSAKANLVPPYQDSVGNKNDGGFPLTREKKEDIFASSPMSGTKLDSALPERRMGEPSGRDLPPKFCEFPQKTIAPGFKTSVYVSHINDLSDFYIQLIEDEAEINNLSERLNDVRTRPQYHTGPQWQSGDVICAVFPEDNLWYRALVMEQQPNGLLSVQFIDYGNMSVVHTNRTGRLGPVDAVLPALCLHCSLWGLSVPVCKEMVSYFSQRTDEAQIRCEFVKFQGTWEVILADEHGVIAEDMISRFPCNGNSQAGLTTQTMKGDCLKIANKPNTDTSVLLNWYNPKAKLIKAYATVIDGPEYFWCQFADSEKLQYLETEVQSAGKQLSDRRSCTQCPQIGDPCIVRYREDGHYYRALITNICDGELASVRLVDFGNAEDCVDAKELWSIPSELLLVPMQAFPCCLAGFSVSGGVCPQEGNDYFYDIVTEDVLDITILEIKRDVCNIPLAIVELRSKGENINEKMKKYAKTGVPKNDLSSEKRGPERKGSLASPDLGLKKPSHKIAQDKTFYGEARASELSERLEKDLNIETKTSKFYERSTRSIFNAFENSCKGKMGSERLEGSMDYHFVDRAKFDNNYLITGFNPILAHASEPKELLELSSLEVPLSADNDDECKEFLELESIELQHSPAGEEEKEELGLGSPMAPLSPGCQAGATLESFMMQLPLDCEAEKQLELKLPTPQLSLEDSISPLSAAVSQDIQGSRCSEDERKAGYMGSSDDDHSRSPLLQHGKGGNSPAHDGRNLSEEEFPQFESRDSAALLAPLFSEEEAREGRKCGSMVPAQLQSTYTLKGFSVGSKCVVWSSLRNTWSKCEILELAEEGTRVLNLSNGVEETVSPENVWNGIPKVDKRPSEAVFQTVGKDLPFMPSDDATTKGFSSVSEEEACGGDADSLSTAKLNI

[2] = target: T2, GST-fused full-length GTSF1L (mouse) (UniProt Q9CWD0); experiment: as above
T2 sequence: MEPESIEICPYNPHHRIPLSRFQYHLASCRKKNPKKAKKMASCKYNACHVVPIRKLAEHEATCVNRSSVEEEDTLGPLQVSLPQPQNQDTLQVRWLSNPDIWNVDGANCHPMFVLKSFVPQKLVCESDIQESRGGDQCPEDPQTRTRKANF

- binding [1]: binds
Molecule: MIWI (from UniProt Q9JMB7 1-862)

- binding [2]: no binding
Molecule: TDRD6 (from UniProt P61407 1-2134)

- binding [1]: binds
B1: TDRD1 (protein, UniProt Q99MV1 1-1172)
chain: MMPRNNLEASTCKMAEPFNFEKKESKPPPQDPLRSPVAQHNHPTFRLKSPENGNTKNNFLLCEQNKQYLASQEDSSVVSSNPAVVNGEVGGSKGDRKPPPTGNPVSPLSLGNSSPPNQVKTKPSSNVTPEKSKKSHKLFENALSVNNPALFNSLGPPLRSTTCHRCGLFGSLRCSQCKQTYYCSTACQRRDWSSHSTICRPVQQSLNKLEDNKSPFETKAIEVKSEVDCPPGVTKEITAGAERVMFSDLRSLQLKKTMEIKGTVTEFKHPSNFYIQLYSSEVLENMNQLSTSLKETYANVVPEDGYLPVKGEVCVAKYTVDQTWNRAIVQAVDVLQRKAHVLYIDYGNEEMIPIDSVHPLSRGLDLFPPSAIKCCVSGVIPTAGEWSEGCVAAVKALLFEQFCSVKVMDILEEEVLTCAVDLVLQSSGKQLDHVLVEMGYGVKPGEQSSTEQSVDHSALEDVGRVTVESKIVTDRNALIPKVLTLNVGDEFCGVVAHIQTPEDFFCQQLQSGHKLAELQESLSEYCGHVIPRSDFYPTIGDVCCAQFSEDDQWYRASVLAYASEESVLVGYVDYGNFEILSLKRLCPIIPKLLDLPMQALNCVLAGVKPSLGIWTPEAVCVMKEMVQNRMVTVRVVGMLGTRALVELIDKSVAPHVSASKALIDSGFAIKEKDVADKGSSMHTASVPLAIEGPAEALEWTWVEFTVDETVDVVVCMMYSPGEFYCHFLKDDALEKLDDLNQSLADYCAQKPPNGFKAEIGRPCCAFFSGDGNWYRALVKEILPSGNVKVHFVDYGNVEEVTTDQLQAILPQFLLLPFQGMQCWLVDIQPPNKHWTKEATARFQACVVGLKLQARVVEITANGVGVELTDLSTPYPKIISDVLIREQLVLRCGSPQDSLMSRPANQHKQIDSHRVQASPSAEQWKTMELPVNKTIAANVLEIISPALFYAIPSEMSENQEKLCVLAAELLEHCNAQKGQPAYRPRTGDACCAKYTNDDFWYRAIVLETSESDVKVLYADYGNIETLPLSRVQPIPASHLELPFQIIRCSLEGPMELNGSCSQLVMELLRNAMLNQSVVLSVKAISKNVHAVSVEKCSENGMINIAENLVMCGLAENLTSKRKSASTKEIPHSRDCCCTELQKQIEKHEQILLFLLNNPTNQSKFTEMKKLLRS
